PubChem BioAssay AID1259308 | NCATS – 2017

Screen: 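Knock-downs that increase output of a recombinant reporter protein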 (primary screen)
Cells: human HEK293 embryonic kidney cells stably expressing firefly luciferase (HEK-CMV-Luc2-Hygro)
Knock-down reagent: single siRNA against human genes, 0.8 pmol siRNA per well
Timing: 72 h
Measurement: 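Reporter luminescence and viable-cell signal on separate replicate plates, given as percent of non-targeting control and median/MAD z-scores, plus per-cell luciferase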
Scale: total luciferase, z-score: higher = more reporter protein produced
Hit rule: 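Active when the median/MAD z-score for overall luciferase is greater than 3; a gene was taken forward for validation with new siRNAs if at least two of its three siRNAs passed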
Calls: active = raised luciferase; inactive = no rise
In all, the deposit lists about 59,000 reagents; shown is a part drawn at random. About 1,510 of them (2.6%) count as active. 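Calls use total luciferase alone and ignore viability, so some active siRNAs may act by altering cell number.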 Not all columns of the deposit are shown.

SIDT2 (SID1 transmembrane family member 2) [SID160733486] scored total luciferase, z-score -0.411; inactive.
Depletion of SIDT2 (SID1 transmembrane family member 2) [SID160740029] came out at: total luciferase, z-score 0.378; inactive.
Against SIDT2 (SID1 transmembrane family member 2) [SID160740030], the entry reads total luciferase, z-score 2.87; inactive.
Knock-down of ZNF852 (zinc finger protein 852) [SID160763580] resulted in: total luciferase, z-score 0.761; inactive.
ZNF852 (zinc finger protein 852) [SID160763581] showed total luciferase, z-score 0.0425; inactive.
For ZNF852 (zinc finger protein 852) [SID160763584], the entry reads total luciferase, z-score -2.39; inactive.
After knock-down of MAP4 (microtubule associated protein 4) [SID160727841], the record shows total luciferase, z-score 0.582; inactive.
Depletion of MAP4 (microtubule associated protein 4) [SID160727842] gave: total luciferase, z-score 0.962; inactive.
MAP4 (microtubule associated protein 4) [SID160727843] showed total luciferase, z-score -1.93; inactive.
With knock-down of TUT1 (terminal uridylyl transferase 1, U6 snRNA-specific) [SID160748073], the screen gave total luciferase, z-score -1.24; inactive.
TUT1 (terminal uridylyl transferase 1, U6 snRNA-specific) [SID160748074] gave total luciferase, z-score 1.1; inactive.
With knock-down of TUT1 (terminal uridylyl transferase 1, U6 snRNA-specific) [SID160748076], the screen gave total luciferase, z-score 3.3; active.
With knock-down of KLHL36 (kelch like family member 36) [SID160734951], the record shows total luciferase, z-score -0.275; inactive.
Silencing of KLHL36 (kelch like family member 36) [SID160749435] resulted in: total luciferase, z-score 0.164; inactive.
After knock-down of KLHL36 (kelch like family member 36) [SID160749436], the record shows total luciferase, z-score 0.188; inactive.
Silencing of SQLE (squalene epoxidase) [SID160726361] gave: total luciferase, z-score -0.868; inactive.
Against SQLE (squalene epoxidase) [SID160726954], the entry reads total luciferase, z-score 0.656; inactive.
Against SQLE (squalene epoxidase) [SID160727560], the values are total luciferase, z-score 0.731; inactive.
With knock-down of FAM91A3P (family with sequence similarity 91 member A3, pseudogene) [SID160734489], the record shows total luciferase, z-score -0.498; inactive.
FAM91A3P (family with sequence similarity 91 member A3, pseudogene) [SID160772520] showed total luciferase, z-score -0.445; inactive.
FAM91A3P (family with sequence similarity 91 member A3, pseudogene) [SID160772521] showed total luciferase, z-score -0.271; inactive.
TBC1D31 (TBC1 domain family member 31) [SID160735218] showed total luciferase, z-score 0.898; inactive.
Knock-down of TBC1D31 (TBC1 domain family member 31) [SID160754518] came out at: total luciferase, z-score -0.488; inactive.
TBC1D31 (TBC1 domain family member 31) [SID160754519] showed total luciferase, z-score 0.345; inactive.
DUSP28 (dual specificity phosphatase 28) [SID160731008] showed total luciferase, z-score -0.0696; inactive.
For DUSP28 (dual specificity phosphatase 28) [SID160763523] the deposit lists total luciferase, z-score 0.145; inactive.
DUSP28 (dual specificity phosphatase 28) [SID160763524] showed total luciferase, z-score -0.744; inactive.
With knock-down of THOC2 (THO complex subunit 2) [SID160745788], the record shows total luciferase, z-score -1.11; inactive.
For THOC2 (THO complex subunit 2) [SID160745789] the deposit lists total luciferase, z-score -0.825; inactive.
Against THOC2 (THO complex subunit 2) [SID160745790], the values are total luciferase, z-score -1.98; inactive.
With knock-down of PPARG (peroxisome proliferator activated receptor gamma) [SID160714709], the screen gave total luciferase, z-score 0.0868; inactive.
Against PPARG (peroxisome proliferator activated receptor gamma) [SID160714710], the entry reads total luciferase, z-score 0.41; inactive.
Silencing of PPARG (peroxisome proliferator activated receptor gamma) [SID160714711] gave: total luciferase, z-score -1.17; inactive.

Reprinted from the listing (2 entries):
ZNF852 (zinc finger protein 852) [SID160763584] → total luciferase, z-score = -2.39; activity call = inactive
MAP4 (microtubule associated protein 4) [SID160727841] → total luciferase, z-score = 0.582; activity call = inactive
